Only a part is listed here, and it is no random draw. The calls were merged from several studies; some rest on single wells. This is one part of the list.
Experiments:
Settings in all cases: stereoisomer not certain
OR3A3 = system: T1, OR3A3
T1 sequence (whole entry): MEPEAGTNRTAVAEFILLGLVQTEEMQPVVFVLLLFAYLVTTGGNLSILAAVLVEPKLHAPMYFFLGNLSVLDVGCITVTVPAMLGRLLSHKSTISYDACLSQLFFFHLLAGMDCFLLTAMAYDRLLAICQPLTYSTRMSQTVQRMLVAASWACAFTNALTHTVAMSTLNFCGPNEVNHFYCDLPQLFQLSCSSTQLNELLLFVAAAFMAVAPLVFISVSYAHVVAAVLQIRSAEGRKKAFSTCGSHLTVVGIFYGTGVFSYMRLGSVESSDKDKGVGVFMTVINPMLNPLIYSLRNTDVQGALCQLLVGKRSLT
Method in brief: (§1)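 Each receptor–molecule pair is labelled responsive or non-responsive (inactive) according to whether the original authors judged the measured signal statistically different from baseline. The data were taken from the main text and supplementary material of published papers and checked for typos and inconsistencies. Assay methods differed by source, with transient luciferase assays in mammalian cell lines being common.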

OR3A4 = system: T2, OR3A4
T2 sequence (whole entry): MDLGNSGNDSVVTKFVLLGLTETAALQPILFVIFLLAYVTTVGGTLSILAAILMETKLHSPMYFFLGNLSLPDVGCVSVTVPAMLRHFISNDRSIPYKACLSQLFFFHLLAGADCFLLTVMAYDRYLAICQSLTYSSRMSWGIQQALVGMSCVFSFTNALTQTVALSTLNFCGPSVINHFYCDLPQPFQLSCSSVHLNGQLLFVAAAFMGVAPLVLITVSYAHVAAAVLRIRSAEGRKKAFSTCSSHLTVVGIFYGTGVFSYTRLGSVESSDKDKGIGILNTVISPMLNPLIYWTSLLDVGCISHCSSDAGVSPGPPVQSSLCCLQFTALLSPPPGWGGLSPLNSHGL
Method in brief: as §1

OR4A16 (Homo sapiens) = target: T3, OR4A16 (Homo sapiens) (UniProt Q8NH70)
T3 sequence (whole entry): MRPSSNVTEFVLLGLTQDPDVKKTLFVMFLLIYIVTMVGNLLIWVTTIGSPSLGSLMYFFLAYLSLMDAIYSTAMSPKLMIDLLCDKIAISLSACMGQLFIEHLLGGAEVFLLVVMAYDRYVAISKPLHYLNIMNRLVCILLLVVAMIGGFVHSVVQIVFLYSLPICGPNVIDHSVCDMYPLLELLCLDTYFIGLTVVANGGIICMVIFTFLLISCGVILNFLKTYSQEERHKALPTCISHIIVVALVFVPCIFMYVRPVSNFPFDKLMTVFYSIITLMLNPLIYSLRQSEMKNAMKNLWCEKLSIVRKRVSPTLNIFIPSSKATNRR
Method in brief: as §1

OR4A4P (Homo sapiens) = target: T4, OR4A4P (Homo sapiens) (UniProt Q8NGN8)
T4 sequence (whole entry): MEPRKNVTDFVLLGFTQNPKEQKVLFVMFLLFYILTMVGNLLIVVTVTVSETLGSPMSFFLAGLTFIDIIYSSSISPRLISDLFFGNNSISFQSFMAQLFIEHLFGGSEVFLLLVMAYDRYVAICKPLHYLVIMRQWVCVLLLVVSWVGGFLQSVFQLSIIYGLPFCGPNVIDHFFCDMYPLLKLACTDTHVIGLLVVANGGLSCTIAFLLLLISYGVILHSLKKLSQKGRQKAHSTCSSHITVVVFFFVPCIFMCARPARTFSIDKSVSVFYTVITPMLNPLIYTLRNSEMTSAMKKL
Method in brief: as §1

OR4A5 (Homo sapiens) = target: T5, OR4A5 (Homo sapiens) (UniProt Q8NH83)
T5 sequence (whole entry): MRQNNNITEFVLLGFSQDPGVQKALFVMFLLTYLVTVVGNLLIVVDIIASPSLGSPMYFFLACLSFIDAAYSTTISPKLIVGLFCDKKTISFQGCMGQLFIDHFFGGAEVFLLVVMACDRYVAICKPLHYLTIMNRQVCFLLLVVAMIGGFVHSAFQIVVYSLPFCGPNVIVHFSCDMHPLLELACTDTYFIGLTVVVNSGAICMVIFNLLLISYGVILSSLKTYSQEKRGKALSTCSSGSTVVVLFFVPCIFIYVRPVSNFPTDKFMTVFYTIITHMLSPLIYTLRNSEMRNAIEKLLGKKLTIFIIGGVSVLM
Method in brief: as §1

OR4A5 = system: T6, OR4A5
T6 sequence (whole entry): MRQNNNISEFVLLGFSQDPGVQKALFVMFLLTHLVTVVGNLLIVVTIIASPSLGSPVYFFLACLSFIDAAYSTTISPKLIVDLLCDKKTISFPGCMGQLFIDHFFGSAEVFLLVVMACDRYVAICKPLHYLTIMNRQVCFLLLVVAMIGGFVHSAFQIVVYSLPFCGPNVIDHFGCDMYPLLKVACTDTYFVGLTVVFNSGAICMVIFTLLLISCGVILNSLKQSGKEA
Method in brief: as §1

OR4B1 (Homo sapiens) = target: T7, OR4B1 (Homo sapiens) (UniProt Q8NGF8)
T7 sequence (whole entry): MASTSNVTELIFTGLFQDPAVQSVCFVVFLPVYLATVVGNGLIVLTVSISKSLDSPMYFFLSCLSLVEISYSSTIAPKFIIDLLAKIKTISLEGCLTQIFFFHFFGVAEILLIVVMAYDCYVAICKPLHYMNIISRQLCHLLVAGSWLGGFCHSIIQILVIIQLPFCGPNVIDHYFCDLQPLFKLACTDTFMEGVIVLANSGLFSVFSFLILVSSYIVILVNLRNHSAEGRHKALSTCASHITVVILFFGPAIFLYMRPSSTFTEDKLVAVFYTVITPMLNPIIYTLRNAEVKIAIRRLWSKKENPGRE
Method in brief: as §1

OR4C11 (Homo sapiens) = target: T8, OR4C11 (Homo sapiens) (UniProt Q6IEV9)
T8 sequence (whole entry): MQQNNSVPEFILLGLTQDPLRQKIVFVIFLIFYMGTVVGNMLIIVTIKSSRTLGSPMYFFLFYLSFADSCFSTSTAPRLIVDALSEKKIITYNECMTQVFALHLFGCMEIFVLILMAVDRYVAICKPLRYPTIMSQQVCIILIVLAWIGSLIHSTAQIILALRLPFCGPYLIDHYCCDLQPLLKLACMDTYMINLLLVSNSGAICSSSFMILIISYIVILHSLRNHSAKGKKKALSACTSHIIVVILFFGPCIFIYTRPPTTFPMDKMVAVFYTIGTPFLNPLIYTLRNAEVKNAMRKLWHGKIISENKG
Method in brief: as §1
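Note: active if original authors judged signal statistically different from baseline.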

Row | SMILES | odorant receptor agonist call (OR3A3) | odorant receptor agonist call (OR3A4) | odorant receptor agonist call (OR4A16 (Homo sapiens)) | odorant receptor agonist call (OR4A4P (Homo sapiens)) | odorant receptor agonist call (OR4A5 (Homo sapiens)) | odorant receptor agonist call (OR4A5) | odorant receptor agonist call (OR4B1 (Homo sapiens)) | odorant receptor agonist call (OR4C11 (Homo sapiens))
1 | CCCCO | inactive | inactive | inactive | inactive | inactive | inactive | inactive | inactive
2 | CC1CCC(C(C)C)C(O)C1 (stereo unspecified) | inactive | inactive | active | active | inactive | inactive | inactive | inactive
3 | COc1cc(C)ccc1O | inactive | inactive | inactive | inactive | inactive | inactive | inactive | inactive
4 | CC1=NC(C)SC1C (stereo unspecified) |  |  | inactive | inactive |  | inactive | inactive | inactive
5 | CCCC(=O)O | inactive | active | inactive | inactive | inactive | inactive | inactive | inactive
6 | O=C1CCCCC1 |  |  | inactive | inactive |  | inactive | inactive | inactive
7 | CC(=O)OC1CC2CCC1(C)C2(C)C (stereo unspecified) | inactive | inactive | inactive | inactive | inactive | inactive | inactive | inactive
8 | CC(C)(O)CCCC1=CCC(C=O)CC1 (stereo unspecified) | inactive | inactive |  |  | active |  |  | 
9 | CCCCCC(C)=O |  |  | inactive | inactive |  | inactive | inactive | active
10 | CCCCCCOC(=O)CCC | inactive | inactive | inactive | inactive | inactive | inactive | inactive | inactive
11 | CCCCCCCC=CC=O | inactive | inactive | inactive | inactive | inactive | inactive | inactive | inactive
12 | COC(=O)c1ccccc1 |  |  | inactive | inactive |  | active | inactive | inactive
13 | C=CCc1ccc(OC(C)=O)c(OC)c1 | active | active | inactive | inactive | active | inactive | inactive | inactive
14 | c1cnccn1 | inactive | inactive | inactive | inactive | inactive | inactive | inactive | inactive
15 | CC(=O)OCC=C(C)CCC=C(C)C | inactive | inactive | inactive | inactive | active | inactive | inactive | inactive
16 | CC(C)C(=O)O | inactive | inactive | inactive | inactive | inactive | inactive | inactive | inactive
17 | CC(=O)c1ccccc1 |  |  | inactive | inactive |  | active | inactive | inactive
18 | CC(=O)OC(C)(C)C1CC=C(C)CC1 (stereo unspecified) | inactive | inactive | inactive | inactive | inactive | inactive | inactive | inactive
19 | CCCCCC(=O)O | inactive | inactive | inactive | inactive | inactive | inactive | inactive | inactive
20 | CCCCCOC(C)=O | inactive | inactive | inactive | inactive | active | inactive | inactive | inactive
21 | COc1cc(C=O)ccc1O | inactive | active | inactive | inactive | inactive | inactive | inactive | inactive
22 | CCCCCCCC=O | inactive | inactive | inactive | inactive | inactive | inactive | inactive | inactive
23 | CC12CCC(CC1)C(C)(C)O2 | inactive | inactive | inactive | inactive | inactive | inactive | inactive | inactive
24 | C=C(C)C1CCC2=CC(=O)CC(C)C2(C)C1 (stereo unspecified) | active | active |  |  | active |  |  | 
25 | C=CCSCC=C | inactive | inactive | inactive | inactive | inactive | inactive | inactive | inactive
26 | CC(C)=CCCC(C)=CC=O | inactive | inactive | inactive | inactive | active | inactive | inactive | inactive
27 | CC(C)(C)c1ccc(CCC=O)cc1 | inactive | inactive | inactive | inactive | inactive | inactive | inactive | inactive

3 entries already listed, arranged by count of non-hydrogen atoms, high to low.
Row | SMILES | odorant receptor agonist call (OR3A3) | odorant receptor agonist call (OR3A4) | odorant receptor agonist call (OR4A16 (Homo sapiens)) | odorant receptor agonist call (OR4A4P (Homo sapiens)) | odorant receptor agonist call (OR4A5 (Homo sapiens)) | odorant receptor agonist call (OR4A5) | odorant receptor agonist call (OR4B1 (Homo sapiens)) | odorant receptor agonist call (OR4C11 (Homo sapiens))
7 | CC(=O)OC1CC2CCC1(C)C2(C)C (stereo unspecified) | inactive | inactive | inactive | inactive | inactive | inactive | inactive | inactive
4 | CC1=NC(C)SC1C (stereo unspecified) |  |  | inactive | inactive |  | inactive | inactive | inactive
5 | CCCC(=O)O | inactive | active | inactive | inactive | inactive | inactive | inactive | inactive

Source: the M2OR odorant receptor database
